Data on two compounds can be found in publication PMC13144739, “Global analysis of cancer cell responses to USP9X inhibition” (The EMBO Journal, 2026).

Common to all, as to type: cell-based, human
One data set deals with DLD-1 cells. Kind of data set: Ubiquitinomics (K-GG peptide profiling), DLD-1. The following applies: DLD-1, 10 µM, 30 min, log2 > 2, adjusted P < 0.05.
A further data set deals with MDA-MB-231 cells. Description: Ubiquitinomics (K-GG peptide profiling), MDA-MB-231. The following applies: MDA-MB-231, 10 µM.
In data set [1] the test system is eight cell lines (A549, DLD-1, MDA-MB-231, MiaPaca2, OVCAR8, UO-31, SK-MEL-2, HMEC-1). Kind of data set: Global proteomics across eight cell lines. The following applies: 10 µM, 24 h.

Turning to `O=C(C[C@@H](C(F)F)n1ccc(F)n1)N1CCC(O)(Cn2cnc3c(cnn3-c3ccc(F)cc3)c2=O)CC1` [FT671, reference compound], the “number of K-GG-modified peptides enriched” value in the data set with DLD-1 cells was found to be 804.
On to `Cc1[nH]c2ccc(C(=O)N3CCN(S(=O)(=O)c4ccc5c(c4)OCCO5)CC3)cc2c1C` [WEHI-092], for which the “number of K-GG-modified peptides enriched” value in the data set on DLD-1 cells was found to be 420. In addition, in the data set with MDA-MB-231 cells (30 min), the “number of K-GG peptides with increased abundance” value was found to be 1323 and the “number of proteins carrying increased K-GG peptides” value was determined as 851. Further, the “number of high-confidence USP9X substrates (increased ubiquitination and decreased protein levels)” value in the data set with MDA-MB-231 cells (30 min / 6 h / 24 h) was 69. Further, in data set [1] (decreased in at least four of eight cell lines), the “number of proteins commonly depleted across the cell lines tested” value is recorded as 17. Further, the “number of proteins significantly downregulated in at least one of the cell lines” value in data set [1] (eight cell lines) was found to be 99.
